Measured values from PubChem BioAssay AID2685 (National Center for Advancing Translational Sciences (NCATS), 2010).
The other results are listed elsewhere or left out. Shown are side measurements of this screen, not its main read-out; they come without a call. Compounds called inactive in the main read-out are mostly missing here. The note in brackets gives the kind of curve behind each potency; many fits are weak.

Assay: qHTS Assay for Lipid Storage Modulators in Drosophila S3 Cells;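 on cell number change: cells counted by Cell Tracker Red CMTPX staining in the red channel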
Conditions: BODIPY lipid droplet fluorescence, 18-24 h; for cell number change: measured here: cell count max response, cells fed with added oleic acid
Summary of the method: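 Laser-scanning cytometry quantifies lipid droplet accumulation (500–530 nm total intensity; droplet/cell object ratio) in oleic acid-fed (400 uM added) Drosophila S3 cells treated with a concentration series. 20 uM Triacsin C defined 100% inhibition.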

[1] = measured here: lipid fluorescence (Fed channel) AC50, cells fed with added oleic acid
[2] = measured here: cell number channel AC50, cells fed with added oleic acid

Row | Structure (SMILES) | cell number change [%] | AC50 [1] | AC50 [2]
1 | CCOC(=O)c1cc(NC(=O)N(CC)C2CCCCC2)c(C)nc1C | -12.2 | 8.2 µM [rising, partial curve] | –
2 | Cc1c(NC(=O)CSCc2ccc(Cl)cc2Cl)cccc1C(=O)O | 16.5 | – | 0.206 µM [rising, full curve]
3 | CCCc1nnc(NS(=O)(=O)c2ccc(OC)cc2)s1 | -12.7 | 0.013 µM [falling, full curve, poor fit] | –
4 | Clc1ccc(OCCCNCc2ccccc2)c2ccccc12 | -32.1 | 20.6 µM [falling, single point] | 14.6 µM [falling, single point]
5 | O=[N+]([O-])c1cc(S(=O)(=O)Nc2cccc(Cl)c2)ccc1N=Nc1c(O)[nH]c2ccccc12 | -30.8 | 29.1 µM [falling, single point] | 29.1 µM [falling, single point]
6 | COc1ccc(CCNC(=O)CSc2nc(=O)[nH]c3c2CCC3)cc1OC | 0.673 | – | –
7 | O=C(NCc1cccnc1)c1ccc(CS(=O)(=O)c2ccc(Cl)cc2)o1 | -13.4 | – | –
8 | COc1ccc2nc(SCC(=O)O)nc(C)c2c1 | -20.1 | – | –
9 | COc1cccc(C(=O)Nc2ccc(NC(=O)Cc3ccccc3)cc2)c1 | 6.88 | 14.6 µM [falling, partial curve] | –
10 | Cc1cccc(NS(=O)(=O)c2cccc3nonc23)c1 | 28.4 | 29.1 µM [rising, single point] | –
11 | COc1ccccc1NC(=O)C(C)OC(=O)CCCc1c[nH]c2ccccc12 (stereo unspecified) | 41.1 | 23.1 µM [rising, partial curve] | 25.9 µM [rising, single point]
12 | Clc1cccc(Cl)c1CNC1CCCC1 | -13.7 | 29.1 µM [falling, single point] | –
13 | COc1ccc(N2CCN(C(=O)CSc3nc4c(c(=O)n(C)c(=O)n4C)n3C(C)C)CC2)cc1 | 39.6 | 3.66 µM [rising, full curve] | 0.231 µM [rising, full curve]
14 | O=C(Nc1ccn(Cc2c(F)c(F)cc(F)c2F)n1)c1cccc(Cn2cc([N+](=O)[O-])cn2)c1 | – | 6.51 µM [rising, partial curve] | 3.66 µM [rising, single point]
15 | COC(=O)C1(Cc2cc(-c3ccc(Cl)cc3)no2)CCN(C(=O)OC(C)(C)C)CC1 | 28.4 | 29.1 µM [rising, single point] | –
16 | CC1Cc2ccccc2N1C(=O)CN1CCC(n2nnc3cc(C(F)(F)F)ccc32)CC1 (stereo unspecified) | -128 | – | 25.9 µM [falling, single point]
17 | O=C(c1ccc([N+](=O)[O-])o1)N(Cc1nnc(-c2ccccc2Cl)o1)C1CC1 | -4.03 | 0.00461 µM [rising, full curve, poor fit] | –
18 | COc1ccc(-c2cnc(N)n2C)cc1 | -16.1 | 0.651 µM [falling, full curve, poor fit] | –
19 | Cc1ccc(C(=O)c2cc([N+](=O)[O-])ccc2N2CCOCC2)cc1 | 10.2 | – | 6.51 µM [falling, single point]
20 | O=C(C1CC1)N1N=C(c2ccc(Cl)cc2)CC1(O)C(F)(F)F (stereo unspecified) | -56.2 | 16.4 µM [falling, single point] | 14.6 µM [falling, partial curve]

Row | Structure (SMILES) | cell number change [%] | AC50 [1] | AC50 [2]
21 | COc1ccc(CC2(CO)CCN(S(=O)(=O)c3cccc4cccnc34)CC2)cc1 | -7.98 | 2.06 µM [falling, partial curve] | –
22 | CCC(OC(=O)c1ccco1)C(=O)NCc1ccc(OC)cc1 (stereo unspecified) | 1.26 | 6.51 µM [falling, single point] | –
23 | O=C(COc1coc(CN2CCN(c3ccccc3)CC2)cc1=O)NC1CCCCC1 | – | – | 0.58 µM [rising, single point]
24 | CN(Cc1ccccc1F)c1ncnc2sccc12 | 3.63 | 2.06 µM [rising, partial curve, poor fit] | –
25 | Cc1ccc(S(=O)(=O)NC(=NC(C)C)c2ccccc2)cc1 | -0.477 | 0.092 µM [falling, full curve, poor fit] | –
26 | CCOc1ccc(C2(C)NC(=O)N(CCN(C)C)C2=O)cc1 (stereo unspecified) | 4.01 | 0.13 µM [falling, full curve, poor fit] | –
27 | CC(C)CN(CCNC(=O)CN1N=C(c2ccc(Cl)cc2)CCC1=O)CC(C)C | 11.3 | 13 µM [falling, partial curve] | 0.58 µM [rising, partial curve, poor fit]
28 | CCc1nnc(NS(=O)(=O)c2ccc(NC(=O)COc3ccc(Cl)c(C)c3)cc2)s1 | 9.47 | 6.51 µM [falling, partial curve, poor fit] | 6.51 µM [falling, single point]
29 | Cc1nn(CCOc2cccc(Br)c2)c(C)c1[N+](=O)[O-] | 6.43 | – | –
30 | Cc1ccc(C(=O)NCCNS(=O)(=O)c2ccccc2[N+](=O)[O-])cc1 | -3.65 | 0.58 µM [rising, full curve] | –
31 | Cc1cccc(OCC(=O)OC(C)CN2CCCCC2)c1 (stereo unspecified) | 12.3 | 11.6 µM [rising, single point] | –
32 | CCCCn1c(SCC(=O)Nc2nnc(C)s2)nc2c1c(=O)n(C)c(=O)n2C | 5.91 | 2.06 µM [rising, full curve] | 1.84 µM [rising, single point]
33 | Cc1ccc(-c2nc(N)c3c(-c4ccc(C)cc4)nn(C(C)(C)C)c3n2)cc1 | – | 3.66 µM [falling, partial curve] | –
34 | O=C(Cn1nnc(-c2ccccc2NC(=O)c2ccco2)n1)Nc1ccccc1 | -30.8 | 2.91 µM [rising, partial curve] | 32.6 µM [falling, single point]
35 | COc1ccc(NC(=O)C2C3C=CC4(O3)C2C(=O)N(CCN2CCCCC2C)C4C(=O)NC2CCCCC2)cc1 (stereo unspecified) | 19 | – | 0.164 µM [rising, full curve, poor fit]
36 | CN(Cc1ccccc1)C(=O)CCNS(=O)(=O)c1ccc2c(c1)oc(=O)n2C | – | – | 2.59 µM [rising, single point]
37 | CC1(C(=O)NC2CCCCCCC2)CCC(=O)N1Cc1cccs1 (stereo unspecified) | -1.78 | – | –
38 | O=C(NNC(=O)c1ccccc1-c1ccccc1C(=O)O)c1ccccc1 | 19.6 | 6.51 µM [falling, single point] | –
39 | Cn1ccsc1=NC(=O)c1ccc(Cl)c([N+](=O)[O-])c1 | 23.9 | 0.0517 µM [falling, partial curve, poor fit] | –
40 | CN(C)CCOC1c2ccccc2-c2ccccc21 | 12.6 | 29.1 µM [rising, single point] | –

A few values from above:
For cell number change [%], CCCCn1c(SCC(=O)Nc2nnc(C)s2)nc2c1c(=O)n(C)c(=O)n2C is listed with 5.91
For cell number change [%], Cc1nn(CCOc2cccc(Br)c2)c(C)c1[N+](=O)[O-] is listed with 6.43
For AC50 [1], CCc1nnc(NS(=O)(=O)c2ccc(NC(=O)COc3ccc(Cl)c(C)c3)cc2)s1 is listed with 6.51 µM [falling, partial curve, poor fit]

Later entries.

Row | Structure (SMILES) | cell number change [%] | AC50 [1] | AC50 [2]
41 | C=CCNCC#CCOc1ccc(OC)cc1 | 2.8 | 0.326 µM [falling, partial curve, poor fit] | –
42 | CCCCCc1nnc(NC(=O)NS(=O)(=O)c2ccc(C)cc2)s1 | -10.5 | 0.231 µM [rising, full curve, poor fit] | –
43 | O=[N+]([O-])c1ccccc1/C=N\Nc1nccs1 | 9.07 | – | –
44 | CCOc1ccc2c(c1)C(C)=CC(C)(C)N2C(=O)Nc1ccccc1F | 0.706 | 29.1 µM [rising, single point] | –
45 | CCCCN1CCc2c([nH]c3c(C)cccc23)C1=O | 62.5 | – | 13 µM [rising, partial curve, poor fit]
46 | Cc1ccnc(NS(=O)(=O)c2ccc(NC(=O)c3oc4ccccc4c3C)cc2)n1 | 20.5 | – | 1.03 µM [rising, full curve, poor fit]
47 | O=S(=O)(c1ccc2oc(=S)[nH]c2c1)N1CCOCC1 | -12.4 | 1.3 µM [rising, full curve, poor fit] | –
48 | CCCn1c(CCC(=O)Nc2ccccc2Cc2ccccc2)nc2cc(S(=O)(=O)N3CCOCC3)ccc21 | 124 | 3.26 µM [rising, full curve] | 4.61 µM [rising, partial curve]
49 | COc1cccc(CNC(=O)Nc2cccs2)c1 | 19.6 | 3.26 µM [rising, full curve] | –
50 | COC(=O)c1ccccc1NC(=O)/C=C/C(=O)O | 3.62 | 1.03 µM [falling, full curve] | –
51 | CC(=O)Nc1cccc(NC(=O)COc2nncc3ccccc23)c1 | 35.5 | 29.1 µM [rising, single point] | 14.6 µM [rising, single point]
52 | COc1ccc(S(=O)(=O)NCc2ccc3c(c2)OCO3)cc1C(=O)O | -67.3 | – | 25.9 µM [falling, partial curve, poor fit]
53 | CNCCCc1[nH]nc(N)c1C#N | 4.03 | – | –
54 | O=C1[C@H]2[C@@H](c3ccc(Cl)cc3)N3C(=O)N(c4cccc(Br)c4)C(=O)[C@@]3(Cc3ccc(Cl)cc3)[C@H]2C(=O)N1C1CCCCC1 | 128 | 1.84 µM [falling, partial curve, poor fit] | 20.6 µM [rising, partial curve]
55 | COC(=O)c1cc2ccsc2n1Cc1nc(-c2cccc(Cl)c2)oc1C | -3.28 | 0.731 µM [rising, single point] | –
56 | Cc1ccc2nc(SCC(=O)Nc3cccc4ccccc34)nc(=O)n2c1 | – | – | 0.92 µM [rising, partial curve]
57 | CCOC(=O)Cn1cc(/C=N/NC(=O)c2ccc(C#N)cc2F)c2ccccc21 | – | 5.8 µM [rising, single point] | –
58 | C=CCNC(=O)CC(C)C(CCCCC)C(=O)O (stereo unspecified) | 4.44 | 0.164 µM [falling, full curve, poor fit] | –
